Paper PMC6967774
No constants are given. Whether binding was seen depends on the method and setting. In cells and extracts the contact can be indirect. Some binding calls cover weakened binding; strength is not graded here.

Biological target: GFP-tagged p97/VCP (Valosin Containing Protein) (UniProt P55072)
Assay: co-IP; lysate of GFP-tagged p97/VCP expressing cells in Pierce IP-lysis buffer (25 mM Tris-HCl pH 7.4, 150 mM NaCl, 1 mM EDTA, 1% NP-40, 5% glycerol) incubated with anti-GFP antibody conjugated agarose beads or unconjugated agarose beads (Chromotek) for four hours at 4°C; washed three times; western blot

binding: binds
B1: FBXL19 (protein, UniProt Q6PCT2 1-694)
chain: MGMKVPGKGESGPSALLTPPMSSSSRGPGAGARRRRTRCRRCRACVRTECGDCHFCRDMKKFGGPGRMKQSCLLRQCTAPVLPHTAVCLLCGEAGKEDTVEGEEEKFGLSLMECTICNEIVHPGCLKMGKAEGVINAEIPNCWECPRCTQEGRTSKDSGEGPGRRRADNGEEGASLGSGWKLTEEPPLPPPPPRRKGPLPAGPPPEDVPGPPKRKEREAGNEPPTPRKKVKGGRERHLKKVGGDACLLRGSDPGGPGLLPPRVLNPSQAFSSCHPGLPPENWEKPKPPLASAEGPAVPSPSPQREKLERFKRMCQLLERVPDTSSSSSDSDSDSDSSGTSLSEDEAPGEARNGRRPARGSSGEKENRGGRRAVRPGSGGPLLSWPLGPAPPPRPPQLERHVVRPPPRSPEPDTLPLAAGSDHPLPRAAWLRVFQHLGPRELCICMRVCRTWSRWCYDKRLWPRMDLSRRKSLTPPMLSGVVRRQPRALDLSWTGVSKKQLMWLLNRLQGLQELVLSGCSWLSVSALGSAPLPALRLLDLRWIEDVKDSQLRELLLPPPDTKPGQTESRGRLQGVAELRLAGLELTDASLRLLLRHAPQLSALDLSHCAHVGDPSVHLLTAPTSPLRETLVHLNLAGCHRLTDHCLPLFRRCPRLRRLDLRSCRQLSPEACARLAAAGPPGPFRCPEEKLLLKDS
